According to paper PMC4922050:
Changes are numbered by the printed parent chain. Results are given in words; binding and its absence hold for the method and conditions named. For some assays here: In cells and extracts the contact can be indirect. Some entries that bind do so weakly or less than the wild type. Tags and fused reporters may be left off the sequences shown.

Protein sequences, listed by entry. Tags and fused reporters are not part of them.
UniProt Q15078: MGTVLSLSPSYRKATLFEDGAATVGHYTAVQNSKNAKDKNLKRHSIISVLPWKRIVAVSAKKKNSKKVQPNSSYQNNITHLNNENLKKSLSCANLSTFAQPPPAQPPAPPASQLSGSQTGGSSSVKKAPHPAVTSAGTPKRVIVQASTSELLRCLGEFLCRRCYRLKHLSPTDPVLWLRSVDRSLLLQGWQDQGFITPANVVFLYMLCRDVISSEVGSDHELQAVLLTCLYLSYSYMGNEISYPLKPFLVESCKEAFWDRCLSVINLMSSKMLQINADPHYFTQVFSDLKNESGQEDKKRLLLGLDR
UniProt P28482: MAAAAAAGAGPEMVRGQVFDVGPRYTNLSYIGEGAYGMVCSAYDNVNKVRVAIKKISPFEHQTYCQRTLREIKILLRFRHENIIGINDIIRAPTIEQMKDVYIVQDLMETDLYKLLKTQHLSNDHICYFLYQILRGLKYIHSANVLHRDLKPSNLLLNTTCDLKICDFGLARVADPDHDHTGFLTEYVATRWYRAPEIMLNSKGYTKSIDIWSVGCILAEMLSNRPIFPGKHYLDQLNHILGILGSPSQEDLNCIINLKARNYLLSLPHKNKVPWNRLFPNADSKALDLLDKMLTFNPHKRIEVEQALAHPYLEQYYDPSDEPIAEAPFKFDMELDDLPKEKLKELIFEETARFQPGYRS
UniProt P51452: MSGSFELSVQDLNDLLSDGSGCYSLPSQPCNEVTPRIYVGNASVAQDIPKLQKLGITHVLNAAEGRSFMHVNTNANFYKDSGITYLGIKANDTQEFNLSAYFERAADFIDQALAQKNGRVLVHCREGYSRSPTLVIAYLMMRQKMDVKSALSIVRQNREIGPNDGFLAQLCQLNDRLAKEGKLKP

What was measured:
[1] = target: T1, flag-tagged VRK3 (human) (UniProt Q8IV63); assay: co-IP; lysates of SH-SY5Y cells overexpressing flag-tagged VRK3, Triton lysis buffer; antibodies overnight, protein G beads at 4 °C for 1 h; the precipitating antibody is not given
T1 sequence: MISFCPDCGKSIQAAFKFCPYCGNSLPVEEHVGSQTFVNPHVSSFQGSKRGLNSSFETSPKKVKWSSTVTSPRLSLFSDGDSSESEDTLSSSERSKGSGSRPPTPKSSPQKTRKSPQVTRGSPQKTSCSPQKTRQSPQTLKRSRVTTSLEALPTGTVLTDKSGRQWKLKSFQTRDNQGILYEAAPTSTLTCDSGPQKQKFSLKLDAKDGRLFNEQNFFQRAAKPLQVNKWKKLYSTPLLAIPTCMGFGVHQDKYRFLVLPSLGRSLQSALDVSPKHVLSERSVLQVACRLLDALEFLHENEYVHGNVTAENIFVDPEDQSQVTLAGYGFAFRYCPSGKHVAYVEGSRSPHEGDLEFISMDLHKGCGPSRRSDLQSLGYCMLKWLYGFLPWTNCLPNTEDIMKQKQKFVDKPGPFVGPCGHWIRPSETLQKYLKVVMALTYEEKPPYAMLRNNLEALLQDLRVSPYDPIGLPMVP

[2] = target: T2, GST-tagged recombinant full-length VRK3 (vaccinia-related kinase 3), wild type (human) (UniProt Q8IV63); assay: pull-down; GST or GST-VRK3 incubated overnight with SH-SY5Y cell lysates in Triton lysis buffer with 1 mM DTT and 10% glycerol, then glutathione-sepharose 4B beads at 4 °C for 1 h; blot; only the target purified
T2 sequence: T1 sequence

[3] = target: T3, GST-VRK3^S108E (human) (UniProt Q8IV63); assay: pull-down; GST-VRK3 (wild type, S108A, S108E) incubated overnight with recombinant VHR or recombinant phospho-ERK2 in Triton lysis buffer with 1 mM DTT and 10% glycerol, then glutathione-sepharose 4B beads at 4 °C for 1 h; both purified
T3 sequence: T1 sequence with S108E

binding [1] | binding [2] | binding [3] | Substance
binds | binds | – | cyclin-dependent kinase 5 (CDK5), endogenous (from UniProt Q00535 1-292)
– | binds | – | p35, activator of CDK5 (from UniProt Q15078 1-307)
– | – | binds | purified recombinant phospho-ERK2 protein (from UniProt P28482 1-360)
binds | – | – | vaccinia H1-related (VHR) phosphatase, endogenous (from UniProt P51452 1-185)
